These are yes or no findings as the source states them, for the method shown. For some assays here: In cells and extracts the contact can be indirect. Some binding calls cover weakened binding; strength is not graded here.
What was measured:
[1] = biological target: soluble form of FGFR2IIIc with the S252W mutation (sFGFR2IIIc^S252W-FLAG) (UniProt P21802); assay: pull-down; Pull-down PolyHis Protein-Protein Interaction Kit; purified sFGFR2IIIc and sFGFR2IIIc^S252W named as bait proteins, Fgf2-His as prey protein; both purified
[2] = biological target: soluble form of wild-type FGFR2 (sFGFR2IIIc-FLAG) (UniProt P21802); assay: as above
[3] = biological target: FGFR2IIIc^S252W-FLAG (UniProt P21802); assay: co-IP; Cos-7 cells co-transfected, lysed in RIPA buffer; immunoprecipitation with anti-FGFR2 polyclonal antibodies that recognise the cytoplasmic region, western blot with anti-FLAG
[4] = biological target: full-length FGFR2IIIb with the S252W mutation (UniProt P21802); assay: as above
[5] = biological target: membrane-bound FGFR2IIIc-FLAG (UniProt P21802); assay: as above

The chains behind the UniProt entries cited, without tags or fusion partners. Where a name states a change or a piece, a line headed by the entry shows the natural chain unless it says otherwise. A line that says so, or that is headed by a name, gives the form on record, which may keep a tag or linker. Residues count along the entry.
UniProt P21802: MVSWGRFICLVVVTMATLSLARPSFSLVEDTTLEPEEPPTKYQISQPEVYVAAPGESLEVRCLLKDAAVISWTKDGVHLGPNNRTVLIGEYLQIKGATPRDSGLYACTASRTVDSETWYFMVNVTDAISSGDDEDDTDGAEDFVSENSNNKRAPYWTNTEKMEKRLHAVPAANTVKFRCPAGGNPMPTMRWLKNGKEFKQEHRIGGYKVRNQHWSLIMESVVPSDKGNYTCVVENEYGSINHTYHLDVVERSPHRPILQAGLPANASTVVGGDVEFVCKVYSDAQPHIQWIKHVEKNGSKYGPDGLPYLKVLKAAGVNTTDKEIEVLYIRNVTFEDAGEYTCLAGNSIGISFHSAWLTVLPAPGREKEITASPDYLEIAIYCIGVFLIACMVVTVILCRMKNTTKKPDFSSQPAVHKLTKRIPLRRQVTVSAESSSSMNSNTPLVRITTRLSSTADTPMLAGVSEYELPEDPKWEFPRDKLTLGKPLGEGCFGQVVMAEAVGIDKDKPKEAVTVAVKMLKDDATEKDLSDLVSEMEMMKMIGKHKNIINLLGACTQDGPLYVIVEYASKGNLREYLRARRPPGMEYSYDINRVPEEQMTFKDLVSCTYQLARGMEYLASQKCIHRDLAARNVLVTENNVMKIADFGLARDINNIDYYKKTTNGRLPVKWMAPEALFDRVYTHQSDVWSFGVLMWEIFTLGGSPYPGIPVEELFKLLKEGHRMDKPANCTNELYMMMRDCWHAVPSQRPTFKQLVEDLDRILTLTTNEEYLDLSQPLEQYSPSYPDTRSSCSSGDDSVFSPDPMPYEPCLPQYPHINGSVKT
membrane-bound FGFR2IIIc-FLAG: residues 22-821 of P21802
soluble form of wild-type FGFR2 (sFGFR2IIIc-FLAG): residues 22-377 of P21802
soluble form of FGFR2IIIc with the S252W mutation (sFGFR2IIIc^S252W-FLAG) (P21802-1, form named): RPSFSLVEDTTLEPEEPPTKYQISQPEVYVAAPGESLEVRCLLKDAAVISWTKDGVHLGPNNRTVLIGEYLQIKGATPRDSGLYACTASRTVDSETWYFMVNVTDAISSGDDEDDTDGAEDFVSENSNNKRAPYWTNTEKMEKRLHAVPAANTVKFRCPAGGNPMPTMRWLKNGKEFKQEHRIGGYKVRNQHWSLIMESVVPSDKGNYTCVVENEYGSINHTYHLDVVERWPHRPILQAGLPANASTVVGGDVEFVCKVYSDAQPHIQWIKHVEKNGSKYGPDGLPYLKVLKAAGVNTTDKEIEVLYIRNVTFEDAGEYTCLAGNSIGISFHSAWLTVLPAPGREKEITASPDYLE
FGFR2IIIc^S252W-FLAG (P21802-1, form named): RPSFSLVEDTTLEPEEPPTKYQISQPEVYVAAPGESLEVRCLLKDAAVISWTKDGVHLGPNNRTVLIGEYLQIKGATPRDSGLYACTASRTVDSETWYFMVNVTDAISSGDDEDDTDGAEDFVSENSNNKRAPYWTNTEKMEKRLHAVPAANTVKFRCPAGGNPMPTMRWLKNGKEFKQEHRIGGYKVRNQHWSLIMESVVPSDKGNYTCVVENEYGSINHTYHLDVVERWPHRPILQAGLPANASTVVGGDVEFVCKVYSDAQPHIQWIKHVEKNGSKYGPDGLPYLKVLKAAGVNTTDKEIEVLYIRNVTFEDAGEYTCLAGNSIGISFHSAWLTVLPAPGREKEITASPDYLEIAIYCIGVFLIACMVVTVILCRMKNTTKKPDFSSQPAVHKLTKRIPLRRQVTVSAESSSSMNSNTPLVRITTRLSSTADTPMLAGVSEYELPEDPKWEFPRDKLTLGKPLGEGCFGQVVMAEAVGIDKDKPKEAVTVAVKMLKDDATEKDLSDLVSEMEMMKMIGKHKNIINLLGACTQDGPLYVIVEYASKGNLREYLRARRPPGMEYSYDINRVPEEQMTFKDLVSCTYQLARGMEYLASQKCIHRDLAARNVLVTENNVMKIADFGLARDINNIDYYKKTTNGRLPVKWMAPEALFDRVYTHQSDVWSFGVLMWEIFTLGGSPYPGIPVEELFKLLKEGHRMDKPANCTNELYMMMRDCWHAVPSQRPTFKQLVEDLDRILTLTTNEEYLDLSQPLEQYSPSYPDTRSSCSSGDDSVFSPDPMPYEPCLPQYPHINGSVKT
full-length FGFR2IIIb with the S252W mutation (P21802, form named): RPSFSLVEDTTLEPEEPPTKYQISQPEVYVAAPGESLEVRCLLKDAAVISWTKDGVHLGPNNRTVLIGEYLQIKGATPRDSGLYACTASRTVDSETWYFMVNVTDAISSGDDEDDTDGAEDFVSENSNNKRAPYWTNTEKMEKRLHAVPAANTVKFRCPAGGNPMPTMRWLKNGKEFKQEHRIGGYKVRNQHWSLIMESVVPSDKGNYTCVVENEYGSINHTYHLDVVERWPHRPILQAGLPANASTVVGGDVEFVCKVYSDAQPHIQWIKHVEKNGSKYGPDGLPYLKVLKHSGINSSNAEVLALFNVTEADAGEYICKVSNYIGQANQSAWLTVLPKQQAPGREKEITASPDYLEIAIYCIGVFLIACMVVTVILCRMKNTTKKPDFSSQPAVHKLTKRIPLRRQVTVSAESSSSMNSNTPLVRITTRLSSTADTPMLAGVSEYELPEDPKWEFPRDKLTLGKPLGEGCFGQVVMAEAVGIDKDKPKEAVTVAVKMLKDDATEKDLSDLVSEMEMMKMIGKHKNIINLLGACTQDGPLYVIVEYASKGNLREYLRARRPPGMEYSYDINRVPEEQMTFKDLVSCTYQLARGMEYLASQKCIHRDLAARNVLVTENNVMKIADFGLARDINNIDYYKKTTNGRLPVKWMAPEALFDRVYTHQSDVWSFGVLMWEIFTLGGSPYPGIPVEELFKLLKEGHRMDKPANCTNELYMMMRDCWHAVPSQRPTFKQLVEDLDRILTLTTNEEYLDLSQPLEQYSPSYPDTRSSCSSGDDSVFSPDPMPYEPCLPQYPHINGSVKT
UniProt P15655, residues 10-154: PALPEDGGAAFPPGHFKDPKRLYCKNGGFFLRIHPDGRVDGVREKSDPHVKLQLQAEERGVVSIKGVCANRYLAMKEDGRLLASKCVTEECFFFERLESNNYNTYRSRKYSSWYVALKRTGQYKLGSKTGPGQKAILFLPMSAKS

Substance | binding [1] | binding [2] | binding [3] | binding [4] | binding [5]
His-tagged Fgf2 protein (Fgf2-His) (from UniProt P15655 10-154) (ligand) | binds | binds | – | – | –
soluble form of FGFR2IIIc with the S252W mutation (sFGFR2IIIc^S252W-FLAG) (from UniProt P21802-1 22-377) (domain or fragment) | – | – | binds | binds | binds
